In paper PMC4886532, “A highly soluble, non-phototoxic, non-fluorescent blebbistatin derivative” (Scientific Reports, 2016):

Test: Fluorescence emission spectra
Type: physicochemical
Conditions: λexc = 350 nm, 5 μM, assay buffer 0.1% DMSO

Row | Compound | Fluorescence
1 | Cc1ccc2c(c1)C(=O)C1(O)CCN(c3ccccc3)C1=N2 (stereo not drawn) [blebbistatin] | high fluorescence
2 | Cc1ccc2c(c1)C(=O)[C@]1(O)CCN(c3ccc(N)cc3)C1=N2 [para-aminoblebbistatin] | non-fluorescent
3 | Cc1ccc2c(c1)C(=O)[C@]1(O)CCN(c3ccc([N+](=O)[O-])cc3)C1=N2 [para-nitroblebbistatin] | non-fluorescent
